Experiment [1] addresses T1, H3K64Ac片段 (组蛋白3第64位赖氨酸乙酰化修饰片段).
T1 sequence (peptide, acetyl-lysine, K(Ac), at position 7 of the printed peptide (Lys64 of histone H3)): CELLIRKLP
As to the kind of experiment: ELISA, antigen coated, purified nanobody, anti-HA detection, OD405. On the technique in general: ELISA stands for enzyme-linked immunosorbent assay.

Experiment [2] deals with H3K64片段 (组蛋白3第64位赖氨酸未修饰片段) (UniProt P68431). The experiment is described as above.
The target is the same in experiment [3]. The experiment can be described thus: ELISA of crude periplasmic extracts from panned clones, positive if OD405 > 3x control.
The target of experiment [4] is T1, H3K64Ac片段 (组蛋白3第64位赖氨酸乙酰化修饰片段). Described as above.

No constants are given. Whether binding was seen depends on the method and setting. Some binding calls cover weakened binding; strength is not graded here.

B1: H3K64-3 (VHH)
VHH: ESGGGLVQPGGSLRLSCAASGFTFSSYGMGWVRQAPGKGLELVSSITSEGATYYADSVKGRFTISRDNAKNTVYLQLNSLKTEDMAMYYCAKDLGQISGQWEYNYWGQGTQVTVSS
On to B1, for which the binding entry in experiment [1], in experiment [2] and in experiment [3] was “binds” each time.

B2: H3K64Ac-77 (VHH)
VHH: ESGGGSVQAGGSLRLSCVGSGFDYSRSCLGWFRQAPGKEREGVAVIERDGRTKLAGSVHGRFTISKDNAKSTLYLQMNSLKPEDTAMYYCAARPWGYCSRDLNSARYTSWGQGTQVTVSS
Turning to B2, the binding result in experiment [1] and in experiment [4] was “binds” in each case.

B3: H3K64Ac-85 (VHH)
VHH: ESGGGSVQAGESLRLSCTASGYIESYCMGWFRQAPGKEREGVAAIDVDGSTSYANSVKGRFTISKDNAKNTLYLQMNSLKPEDTAMYYCGAGACDCSGGYCSIARYKYWGQGTQVTVSS
For B3, the binding result in experiment [1] and in experiment [4] was “binds” in each case.

B4: H3K64Ac-1 (VHH)
VHH: ESGGGSVQAGGSLRLSCAASGYTYRRYCMGWFRQAPGKEREGVAAIDVDGSTSYANSVKGRFTISKDNAKNTLYLQMNSLKPEDTAMYYCGAGACDCSGGYCSIARYKYWGQGTQVTVSS
With B4, the binding entry in experiment [1] and in experiment [4] was “binds” in each case.

The values above are taken from CN109734804A.
